Experimental data: publication PMC6941992, “Polar recruitment of RLD by LAZY1-like protein during gravity signaling in root branch angle control” (Nature Communications, 2020)

Assays:
[1] = biological target: LZY2-GFP (Arabidopsis thaliana); assay: affinity purification with mass spectrometry; μMACS anti-GFP microbeads on extracts of two-week-old 35S:LZY2-GFP or 35S:LZY3-GFP seedlings (50 mM Tris-HCl pH 8.0, 150 mM NaCl, 1 mM EDTA, 1% Triton X-100), 2 h at 4 °C; LC-MS/MS; proteins also found with 35S:GFP excluded
[2] = biological target: LZY3-GFP (Arabidopsis thaliana); assay: as above

B1: RLD1 (RCC1-like domain protein 1) (protein, UniProt Q947D2 1-1103)
chain: MADLVTYSNADHNLEQALITLKKGTQLLKYGRKGKPKFYPFRLSSDEKSLIWISSSGEKRLKLASVSKIVPGQRTAVFQRYLRPEKDYLSFSLLYNGKKKSLDLICKDKVEAEIWIGGLKTLISTGQGGRSKIDGWSGGGLSVDASRELTSSSPSSSSASASRGHSSPGTPFNIDPITSPKSAEPEVPPTDSEKSHVALDNKNMQTKVSGSDGFRVSVSSAQSSSSHGSAADDSDALGDVYIWGEVICDNVVKVGIDKNASYLTTRTDVLVPKPLESNIVLDVHQIACGVRHAAFVTRQGEIFTWGEESGGRLGHGIGKDVFHPRLVESLTATSSVDFVACGEFHTCAVTLAGELYTWGDGTHNVGLLGHGSDISHWIPKRIAGSLEGLHVASVSCGPWHTALITSYGRLFTFGDGTFGVLGHGDKETVQYPREVESLSGLRTIAVSCGVWHTAAVVEIIVTQSNSSSVSSGKLFTWGDGDKNRLGHGDKDPRLKPTCVPALIDYNFHKIACGHSLTVGLTTSGQVFTMGSTVYGQLGNLQTDGKLPCLVEDKLASEFVEEISCGAYHVAALTSRNEVYTWGKGANGRLGHGDLEDRKVPTIVEALKDRHVKYIACGSNYTAAICLHKWVSGAEQSQCSTCRLAFGFTRKRHNCYNCGLVHCHSCSSKKAFRAALAPSAGRLYRVCDSCYVKLSKVSEINDTNRRNSAVPRLSGENRDRLDKSEIRLAKFGTSNMDLIKQLDSKAAKQGKKTDTFSLGRNSQLPSLLQLKDAVQSNIGDMRRATPKLAQAPSGISSRSVSPFSRRSSPPRSATPMPSTSGLYFPVGIADNMKKTNEILNQEIVKLRTQVDSLTQKCEFQEVELQNSVKKTQEALALAEEESAKSRAAKEAIKSLIAQLKDVAEKLPPGESVKLACLQNGLDQNGFHFPEENGFHPSRSESMTSSISSVAPFDFAFANASWSNLQSPKQTPRASERNSNAYPADPRLSSSGSVISERIEPFQFQNNSDNGSSQTGVNNTNQVEAEWIEQYEPGVYITLVALHDGTRDLRRVRFSRRRFGEHQAETWWSENREKVYEKYNVRVSEKSTASQTHRDRDEEEEDIPH
binding [1]: binds
binding [2]: binds

No constants are given. Whether binding was seen depends on the method and setting. Binding seen in cells or lysates may run through a third protein. These calls come from enrichment with a bait or labelling near it, and not all partners need be listed.
